# This is one part of the list. Only a few entries rise above the background.
# B1: 4-80.3 (protein)
# chain 1: QVQLQESGPGLVKPSETLSLTCAVSGGSFSSYWWSWIRQPPGKGLEWIGEINGNSGSTNYNPSLKSRVTISKDASKNQFSLKLSSVTAADTAVYYCARYKNVWGRGVLVTVSS
# chain 2: DVVMTQSPLSLPITPGQPASISCRSSQSLVHSNGNTYLSWYQQKPGQPPRRLIYQVSNRDSGVPDRFSGSGAGTDFTLKISRVEAEDVGVYYCGQGTNVPTFGQGTKVEIK
# B2: 4-127.1 (protein)
# chain 1: QVQLQESGPGLVKPSETLSLTCAVSDYSINTGHGWTWIRQPPGKGLEWIGYIGGSSGSPNYNPSLKSRVTISKDTSKNELSLKLNSVTAADTAVYYCARRIPADRSGNDFWGQGVLVTVSS
# chain 2: QSVLTQPPSVSGDPGQRVTISCTGSSSNIGGFYGYWYQQFPGTAPKLLIYDNNKRPSGISDRFSGSKSGTSASLTITGLQPGDEADYYCGSWDSSLSAHVFGSGTKLTVL
# Experiments:
# Experiment in all cases: fluorescence intensity of antibody binding to polysaccharide-coupled beads; higher = stronger binding
# [1] = molecular target: pneumococcal polysaccharide Pn47A
# [2] = molecular target: pneumococcal polysaccharide Pn47F
# [3] = molecular target: pneumococcal polysaccharide Pn48
# [4] = molecular target: pneumococcal polysaccharide Pn5
# [5] = molecular target: pneumococcal polysaccharide Pn6A
# [6] = molecular target: pneumococcal polysaccharide Pn6B
# [7] = molecular target: pneumococcal polysaccharide Pn6C
# [8] = molecular target: pneumococcal polysaccharide Pn6D
# [9] = molecular target: pneumococcal polysaccharide Pn7A
# [10] = molecular target: pneumococcal polysaccharide Pn7B
# [11] = molecular target: pneumococcal polysaccharide Pn7C
# [12] = molecular target: pneumococcal polysaccharide Pn7F
# [13] = molecular target: pneumococcal polysaccharide Pn8
# [14] = molecular target: pneumococcal polysaccharide Pn9A
# [15] = molecular target: pneumococcal polysaccharide Pn9L
# [16] = molecular target: pneumococcal polysaccharide Pn9N
# [17] = molecular target: pneumococcal polysaccharide Pn9V
# [18] = molecular target: pneumococcal polysaccharide C-Poly-1
# [19] = molecular target: pneumococcal polysaccharide C-Poly-2
# [20] = molecular target: pneumococcal polysaccharide Pn1
# [21] = molecular target: pneumococcal polysaccharide Pn10A
# [22] = antibody concentration 2337.65 ng/mL
# [23] = antibody concentration 12500 ng/mL
# [24] = antibody concentration 0.1 ng/mL
# [25] = antibody concentration 0.534724 ng/mL
# [26] = antibody concentration 2.8593 ng/mL
# [27] = antibody concentration 15.2894 ng/mL
# [28] = antibody concentration 81.7561 ng/mL
# [29] = antibody concentration 437.17 ng/mL
binder,measurement,setting,value
B1,fluorescence intensity,[1]; [22],27.5 MFI
same,fluorescence intensity,[1]; [23],89.5 MFI
same,fluorescence intensity,[2]; [24],10.5 MFI
same,fluorescence intensity,[2]; [25],11 MFI
same,fluorescence intensity,[2]; [26],12 MFI
same,fluorescence intensity,[2]; [27],12.5 MFI
same,fluorescence intensity,[2]; [28],13 MFI
same,fluorescence intensity,[2]; [29],19 MFI
same,fluorescence intensity,[2]; [22],67 MFI
same,fluorescence intensity,[2]; [23],371 MFI
same,fluorescence intensity,[3]; [24],22.2 MFI
same,fluorescence intensity,[3]; [25],22.5 MFI
same,fluorescence intensity,[3]; [26],20.5 MFI
same,fluorescence intensity,[3]; [27],22 MFI
same,fluorescence intensity,[3]; [28],25 MFI
same,fluorescence intensity,[3]; [29],31.2 MFI
same,fluorescence intensity,[3]; [22],50 MFI
same,fluorescence intensity,[3]; [23],152 MFI
same,fluorescence intensity,[4]; [24],8.5 MFI
same,fluorescence intensity,[4]; [25],9 MFI
same,fluorescence intensity,[4]; [26],9.5 MFI
same,fluorescence intensity,[4]; [27],9.5 MFI
same,fluorescence intensity,[4]; [28],9.75 MFI
same,fluorescence intensity,[4]; [29],17 MFI
same,fluorescence intensity,[4]; [22],63.5 MFI
same,fluorescence intensity,[4]; [23],402 MFI
same,fluorescence intensity,[5]; [24],21.2 MFI
same,fluorescence intensity,[5]; [25],22.5 MFI
same,fluorescence intensity,[5]; [26],22.5 MFI
same,fluorescence intensity,[5]; [27],22 MFI
same,fluorescence intensity,[5]; [28],24 MFI
same,fluorescence intensity,[5]; [29],26.5 MFI
same,fluorescence intensity,[5]; [22],35.5 MFI
same,fluorescence intensity,[5]; [23],86.8 MFI
same,fluorescence intensity,[6]; [24],20.5 MFI
same,fluorescence intensity,[6]; [25],18.8 MFI
same,fluorescence intensity,[6]; [26],21 MFI
same,fluorescence intensity,[6]; [27],22 MFI
same,fluorescence intensity,[6]; [28],19 MFI
same,fluorescence intensity,[6]; [29],24.5 MFI
same,fluorescence intensity,[6]; [22],32.2 MFI
same,fluorescence intensity,[6]; [23],74.5 MFI
same,fluorescence intensity,[7]; [24],19.5 MFI
same,fluorescence intensity,[7]; [25],18 MFI
same,fluorescence intensity,[7]; [26],18 MFI
same,fluorescence intensity,[7]; [27],17.5 MFI
same,fluorescence intensity,[7]; [28],17.5 MFI
same,fluorescence intensity,[7]; [29],21.8 MFI
same,fluorescence intensity,[7]; [22],42.2 MFI
same,fluorescence intensity,[7]; [23],82 MFI
same,fluorescence intensity,[8]; [24],15.5 MFI
same,fluorescence intensity,[8]; [25],19.2 MFI
same,fluorescence intensity,[8]; [26],19.8 MFI
same,fluorescence intensity,[8]; [27],17.5 MFI
same,fluorescence intensity,[8]; [28],16.5 MFI
same,fluorescence intensity,[8]; [29],20.8 MFI
same,fluorescence intensity,[8]; [22],24 MFI
same,fluorescence intensity,[8]; [23],40.8 MFI
same,fluorescence intensity,[9]; [24],19.5 MFI
same,fluorescence intensity,[9]; [25],19.8 MFI
same,fluorescence intensity,[9]; [26],19.5 MFI
same,fluorescence intensity,[9]; [27],20.5 MFI
same,fluorescence intensity,[9]; [28],20.2 MFI
same,fluorescence intensity,[9]; [29],28.5 MFI
same,fluorescence intensity,[9]; [22],145 MFI
same,fluorescence intensity,[9]; [23],1140 MFI
same,fluorescence intensity,[10]; [24],17.8 MFI
same,fluorescence intensity,[10]; [25],17.8 MFI
same,fluorescence intensity,[10]; [26],17.2 MFI
same,fluorescence intensity,[10]; [27],16 MFI
same,fluorescence intensity,[10]; [28],17 MFI
same,fluorescence intensity,[10]; [29],19.5 MFI
same,fluorescence intensity,[10]; [22],31.5 MFI
same,fluorescence intensity,[10]; [23],130 MFI
same,fluorescence intensity,[11]; [24],18.2 MFI
same,fluorescence intensity,[11]; [25],15.5 MFI
same,fluorescence intensity,[11]; [26],16.2 MFI
same,fluorescence intensity,[11]; [27],15 MFI
same,fluorescence intensity,[11]; [28],14.5 MFI
same,fluorescence intensity,[11]; [29],17.2 MFI
same,fluorescence intensity,[11]; [22],26.2 MFI
same,fluorescence intensity,[11]; [23],120 MFI
same,fluorescence intensity,[12]; [24],14 MFI
same,fluorescence intensity,[12]; [25],14 MFI
same,fluorescence intensity,[12]; [26],14 MFI
same,fluorescence intensity,[12]; [27],16 MFI
same,fluorescence intensity,[12]; [28],17.5 MFI
same,fluorescence intensity,[12]; [29],32 MFI
same,fluorescence intensity,[12]; [22],133 MFI
same,fluorescence intensity,[12]; [23],870 MFI
same,fluorescence intensity,[13]; [24],22.2 MFI
same,fluorescence intensity,[13]; [25],22.2 MFI
same,fluorescence intensity,[13]; [26],23.8 MFI
same,fluorescence intensity,[13]; [27],23 MFI
same,fluorescence intensity,[13]; [28],24.2 MFI
same,fluorescence intensity,[13]; [29],27.5 MFI
same,fluorescence intensity,[13]; [22],42 MFI
same,fluorescence intensity,[13]; [23],124 MFI
same,fluorescence intensity,[14]; [24],21 MFI
same,fluorescence intensity,[14]; [25],19 MFI
same,fluorescence intensity,[14]; [26],20 MFI
same,fluorescence intensity,[14]; [27],18.5 MFI
same,fluorescence intensity,[14]; [28],20.5 MFI
same,fluorescence intensity,[14]; [29],21 MFI
same,fluorescence intensity,[14]; [22],43.5 MFI
same,fluorescence intensity,[14]; [23],196 MFI
same,fluorescence intensity,[15]; [24],18.8 MFI
same,fluorescence intensity,[15]; [25],17 MFI
same,fluorescence intensity,[15]; [26],17 MFI
same,fluorescence intensity,[15]; [27],17 MFI
same,fluorescence intensity,[15]; [28],16.8 MFI
same,fluorescence intensity,[15]; [29],20.2 MFI
same,fluorescence intensity,[15]; [22],28.2 MFI
same,fluorescence intensity,[15]; [23],77.2 MFI
same,fluorescence intensity,[16]; [24],17.5 MFI
same,fluorescence intensity,[16]; [25],15.2 MFI
same,fluorescence intensity,[16]; [26],14 MFI
same,fluorescence intensity,[16]; [27],15.5 MFI
same,fluorescence intensity,[16]; [28],16.5 MFI
same,fluorescence intensity,[16]; [29],16.5 MFI
same,fluorescence intensity,[16]; [22],30.2 MFI
same,fluorescence intensity,[16]; [23],140 MFI
same,fluorescence intensity,[17]; [24],14.8 MFI
same,fluorescence intensity,[17]; [25],15 MFI
same,fluorescence intensity,[17]; [26],15.2 MFI
same,fluorescence intensity,[17]; [27],15 MFI
same,fluorescence intensity,[17]; [28],15.5 MFI
same,fluorescence intensity,[17]; [29],18.2 MFI
same,fluorescence intensity,[17]; [22],25 MFI
same,fluorescence intensity,[17]; [23],50.2 MFI
B2,fluorescence intensity,[18]; [24],26 MFI
same,fluorescence intensity,[18]; [25],26.5 MFI
same,fluorescence intensity,[18]; [26],25.2 MFI
same,fluorescence intensity,[18]; [27],25.5 MFI
same,fluorescence intensity,[18]; [28],27 MFI
same,fluorescence intensity,[18]; [29],27 MFI
same,fluorescence intensity,[18]; [22],32.8 MFI
same,fluorescence intensity,[18]; [23],106 MFI
same,fluorescence intensity,[19]; [24],19.8 MFI
same,fluorescence intensity,[19]; [25],20.5 MFI
same,fluorescence intensity,[19]; [26],20 MFI
same,fluorescence intensity,[19]; [27],20 MFI
same,fluorescence intensity,[19]; [28],19 MFI
same,fluorescence intensity,[19]; [29],24.2 MFI
same,fluorescence intensity,[19]; [22],28 MFI
same,fluorescence intensity,[19]; [23],87.5 MFI
same,fluorescence intensity,[20]; [24],13 MFI
same,fluorescence intensity,[20]; [25],15 MFI
same,fluorescence intensity,[20]; [26],13.5 MFI
same,fluorescence intensity,[20]; [27],13.5 MFI
same,fluorescence intensity,[20]; [28],15.2 MFI
same,fluorescence intensity,[20]; [29],15 MFI
same,fluorescence intensity,[20]; [22],18.5 MFI
same,fluorescence intensity,[20]; [23],30.2 MFI
same,fluorescence intensity,[21]; [24],27 MFI
same,fluorescence intensity,[21]; [25],26.5 MFI
same,fluorescence intensity,[21]; [26],27.5 MFI
same,fluorescence intensity,[21]; [27],26.8 MFI
same,fluorescence intensity,[21]; [28],28.5 MFI
same,fluorescence intensity,[21]; [29],27 MFI

# Quoted from the listing for reference:
binder,measurement,setting,value
B1,fluorescence intensity,[15]; [27],17 MFI
same,fluorescence intensity,[15]; [28],16.8 MFI

# Rewritten as tab-separated lines: part of the list above.
binder	measurement	setting	value
B1	fluorescence intensity	[2]; [28]	13 MFI
same	fluorescence intensity	[2]; [29]	19 MFI
same	fluorescence intensity	[2]; [22]	67 MFI

# Source: the supplement of paper PMC11438910
